Test results from the supplement of paper PMC8960247.
Where a name gives a salt, the structure may show the parent alone. Single values of this set are uncertain.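 Immortalized human renal angiomyolipoma cells with an empty vector keep TSC2 lost. A luminescent ATP assay measured viability, normalized per plate to vehicle-treated wells, in low-serum medium where TSC2-rescued cells fail to grow.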

Tested on: 621-102 (TSC2-deficient)
Assay: relative viability vs DMSO (fraction); higher = less cytotoxic
Conditions: serum: 0.1% FBS, 72 h

| Structure (SMILES) | relative viability (0.0128 nM) | relative viability (0.064 nM) | relative viability (0.32 nM) | relative viability (1.6 nM) | relative viability (8 nM) | relative viability (40 nM) | relative viability (200 nM) | relative viability (1000 nM) | relative viability (5000 nM) |
| --- | --- | --- | --- | --- | --- | --- | --- | --- | --- |
| NC1(Cc2ccc(Cl)cc2)CCN(c2ncnc3[nH]ccc23)CC1 | 0.848 | 0.829 | 0.8 | 0.77 | 0.478 | 0.818 | 0.776 | 0.73 | 0.545 |
| Cc1ccc(C(=O)Nc2cccc(C(F)(F)F)c2)cc1Nc1nc(-c2cccnc2)nc2c1cnn2C [NVP-BHG712] | 1.17 | 1.15 | 1.22 | 1.16 | 1.08 | 0.908 | 0.224 | 0.344 | 0.0119 |
| CNC(=O)c1cc(Oc2ccc(NC(=O)Nc3ccc(Cl)c(C(F)(F)F)c3)c(F)c2)ccn1 [Regorafenib (BAY 73-4506)] | 0.691 | 0.662 | 0.662 | 0.741 | 0.794 | 0.908 | 0.734 | 0.17 | 0.00666 |
| COc1cc(Nc2ncc(F)c(Nc3ccc4c(n3)NC(=O)C(C)(C)O4)n2)cc(OC)c1OC [R406] | 0.676 | 0.704 | 0.769 | 0.659 | 0.705 | 0.836 | 0.76 | 0.472 | 0.246 |
| COC(=O)Nc1ccc(-c2nc(N3CCOCC3)c3cnn(C4CCN(C(=O)OC)CC4)c3n2)cc1 [WYE-354] | 1.22 | 1.49 | 1.49 | 0.972 | 0.499 | 0.62 | 1.01 | 1.21 | 0.703 |
| COC[C@@H](c1ccc(C(F)(F)F)cc1)N1CCN(C2(C)CCN(C(=O)c3c(C)ncnc3C)CC2)C[C@@H]1C [Vicriviroc Malate] | 0.856 | 0.802 | 0.771 | 0.822 | 0.756 | 0.798 | 0.77 | 0.739 | 0.642 |
| CCOC(=O)[C@H](CCc1ccccc1)N[C@@H](C)C(=O)N1CCC[C@H]1C(=O)O [Enalapril Maleate] | 0.762 | 0.721 | 0.741 | 0.759 | 0.669 | 0.7 | 0.635 | 0.723 | 0.711 |
| Nc1ccccc1NC(=O)c1ccc(CNC(=O)OCc2cccnc2)cc1 [MS-275] | 0.634 | 0.689 | 0.759 | 0.791 | 0.674 | 0.709 | 0.727 | 0.605 | 0.221 |
| CCN(CC)CCNC(=O)c1c(C)[nH]c(/C=C2\C(=O)Nc3ccc(F)cc32)c1C [Sunitinib Malate] | 1.01 | 0.959 | 0.801 | 0.824 | 0.824 | 0.797 | 0.724 | 0.627 | 0.421 |
| C[C@H](NC(=O)Cc1cc(F)cc(F)c1)C(=O)N[C@@H]1C(=O)N(C)c2ccccc2-c2ccccc21 | 0.562 | 0.682 | 0.887 | 0.726 | 0.772 | 0.587 | 0.567 | 0.524 | 0.379 |
| CN1[C@@H]2CC[C@H]1C[C@@H](OC(=O)C(CO)c1ccccc1)C2 (some centres undefined) [Atropine] | 0.681 | 0.72 | 0.678 | 0.729 | 0.725 | 0.732 | 0.751 | 0.742 | 0.704 |
| c1ccc2c(CCNc3ccc(Nc4ccncc4)cc3)c[nH]c2c1 | 0.814 | 0.825 | 0.836 | 0.806 | 0.893 | 0.695 | 0.517 | 0.0504 | 0.0418 |
| COC(=O)N[C@H](C(=O)N1CCC[C@H]1c1ncc(-c2ccc(-c3ccc(-c4cnc([C@@H]5CCCN5C(=O)[C@@H](NC(=O)OC)C(C)C)[nH]4)cc3)cc2)[nH]1)C(C)C | 0.803 | 0.797 | 0.921 | 0.838 | 0.827 | 0.716 | 0.716 | 0.648 | 0.645 |
| Cc1cnc(Nc2ccc(N3CCN(C)CC3)cc2)nc1Nc1cccc(S(=O)(=O)NC(C)(C)C)c1 | 0.882 | 0.834 | 0.815 | 0.823 | 0.834 | 0.75 | 0.628 | 0.445 | 0.0238 |
| NC(=O)Nc1cc(-c2cccc(F)c2)sc1C(=O)N[C@H]1CCCNC1 [AZD7762] | 0.675 | 0.654 | 0.519 | 0.547 | 0.3 | 0.0422 | 0.00923 | 0.0046 | 0.0068 |
| CCC(=O)O[C@H]1CC[C@H]2[C@@H]3CCC4=CC(=O)CC[C@]4(C)[C@H]3CC[C@]12C [Testosterone propionate] | 0.901 | 0.868 | 0.834 | 0.878 | 0.838 | 0.77 | 0.775 | 0.75 | 0.459 |
| COc1cc(N2CCC(N3CCN(C)CC3)CC2)ccc1Nc1ncc(Cl)c(Nc2ccccc2S(=O)(=O)C(C)C)n1 [NVP-TAE684] | 0.861 | 0.93 | 0.801 | 0.702 | 0.799 | 0.8 | 0.576 | 0.014 | 0.00532 |
| C[C@@H](Oc1cc(-c2cnn(C3CCNCC3)c2)cnc1N)c1c(Cl)ccc(F)c1Cl | 0.83 | 0.894 | 0.83 | 0.859 | 0.474 | 0.749 | 0.766 | 0.333 | 0.0346 |
| CN(C)CC/C=C1/c2ccccc2COc2ccc(CC(=O)O)cc21 [Olopatadine HCl] | 0.528 | 0.745 | 0.73 | 0.206 | 0.357 | 0.534 | 0.765 | 0.788 | 0.817 |
| O=C(O[C@H]1C[C@H]2CC[C@@H](C1)[N+]21CCCC1)C(O)(c1ccccc1)c1ccccc1 [Trospium chloride] | 0.647 | 0.723 | 0.852 | 0.917 | 0.72 | 0.888 | 0.857 | 0.824 | 0.443 |
| COc1ccc(-c2ccc3c(N4CCOCC4)nc(N4C[C@@H](C)O[C@@H](C)C4)nc3n2)cc1CO | 0.718 | 0.806 | 0.711 | 0.839 | 0.845 | 0.818 | 0.79 | 0.854 | 0.651 |
| NC(=O)N1c2ccccc2C=Cc2ccccc21 [Carbamazepine] | 0.714 | 0.675 | 0.766 | 0.791 | 0.639 | 0.638 | 0.564 | 0.655 | 0.739 |
| CC1(C)C(=O)N(CCN2CCC(C(=O)c3ccc(F)cc3)CC2)c2ccccc21 | 0.811 | 0.867 | 0.935 | 0.814 | 0.783 | 0.841 | 0.813 | 0.675 | 0.537 |

| Structure (SMILES) | relative viability (0.0128 nM) | relative viability (0.064 nM) | relative viability (0.32 nM) | relative viability (1.6 nM) | relative viability (8 nM) | relative viability (40 nM) | relative viability (200 nM) | relative viability (1000 nM) | relative viability (5000 nM) |
| --- | --- | --- | --- | --- | --- | --- | --- | --- | --- |
| Cn1cc(-c2ccc3nnc(Sc4ccc5ncccc5c4)n3n2)cn1 [SGX-523] | 0.841 | 0.869 | 0.878 | 0.762 | 0.746 | 0.692 | 0.154 | 0.00611 | 0.00786 |
| O=C1CCc2cc(OCCCCc3nnnn3C3CCCCC3)ccc2N1 [Cilostazol] | 1.42 | 1.39 | 1.58 | 1.4 | 0.798 | 0.871 | 1.08 | 1.53 | 1.46 |
| NC1=N[C@@]2(c3cc(NC(=O)c4ccc(F)cn4)ccc3F)COC[C@H]2CS1 | 0.837 | 0.844 | 0.988 | 0.829 | 0.874 | 0.778 | 1.01 | 0.807 | 0.765 |
| C#Cc1cccc(Nc2ncnc3cc(OCCOC)c(OCCO)cc23)c1 [OSI-420] | 1 | 1.02 | 1.61 | 1.61 | 0.665 | 1.55 | 0.53 | 0.0806 | 0.0707 |
| C[C@]12CCC(=O)C(O)=C1CC[C@@H]1[C@@H]2CC[C@]2(C)C(=O)CC[C@@H]12 [Formestane] | 1.05 | 0.971 | 0.972 | 0.315 | 0.122 | 0.176 | 0.126 | 0.0894 | 0.816 |
| CC/C(=C(\c1ccccc1)c1ccc(OCCN(C)C)cc1)c1ccccc1 [Tamoxifen Citrate] | 0.884 | 0.884 | 0.823 | 0.836 | 0.791 | 0.634 | 0.544 | 0.228 | 0.00657 |
| S=C(NCc1ccc2c(c1)OCO2)N1CCN(c2ncnc3c2oc2ccccc23)CC1 [MP-470] | 0.583 | 0.744 | 0.852 | 0.697 | 0.846 | 0.89 | 0.905 | 0.764 | 0.273 |
| COc1ncc(-c2ccc3nccc(-c4ccnnc4)c3c2)cc1NS(=O)(=O)c1ccc(F)cc1F | 0.9 | 0.824 | 0.861 | 0.844 | 0.864 | 0.762 | 0.643 | 0.375 | 0.226 |
| CNC(C)C1CCC(N)C(OC2C(N)CC(N)C(OC3OCC(C)(O)C(NC)C3O)C2O)O1 (centres undefined) [Gentamycin sulfate] | 0.724 | 0.761 | 0.726 | 0.748 | 0.689 | 0.645 | 0.634 | 0.618 | 0.291 |
| Cc1ccc(O)c([C@H](CCN(C(C)C)C(C)C)c2ccccc2)c1 [Tolterodine tartrate] | 0.296 | 0.305 | 0.707 | 0.637 | 0.608 | 0.447 | 0.672 | 0.0976 | 0.305 |
| O=C(NC[C@H](O)CO)c1ccncc1Nc1ccc(I)cc1F | 0.833 | 0.812 | 0.798 | 0.834 | 0.741 | 0.784 | 0.752 | 0.602 | 0.43 |
| Nc1cc(C(Cl)=C(Cl)Cl)c(S(N)(=O)=O)cc1S(N)(=O)=O [Clorsulon] | 0.452 | 0.688 | 0.906 | 0.88 | 0.722 | 0.694 | 0.916 | 0.474 | 0.604 |
| NC(CO)C(=O)NNCc1ccc(O)c(O)c1O (centres undefined) [Benserazide HCl] | 0.965 | 0.961 | 0.918 | 0.907 | 0.754 | 0.777 | 0.588 | 0.485 | 0.569 |
| COc1ccnc2[nH]cc(C(=O)C(=O)N3CCN(C(=O)c4ccccc4)C[C@H]3C)c12 [BMS-806] | 0.797 | 0.822 | 0.87 | 0.822 | 0.851 | 0.73 | 0.837 | 0.808 | 0.739 |
| O=C(O)Cc1cccc(OCCCN(Cc2cccc(C(F)(F)F)c2Cl)CC(c2ccccc2)c2ccccc2)c1 [GW3965] | 0.949 | 0.892 | 0.912 | 0.82 | 0.806 | 0.683 | 0.58 | 0.387 | 0.012 |
| CNC(=O)Nc1ccc(-c2nc(N3CC4CCC(C3)O4)c3cnn(C4CCC5(CC4)OCCO5)c3n2)cc1 | 0.89 | 0.916 | 0.893 | 0.934 | 0.921 | 0.753 | 0.462 | 0.283 | 0.143 |
| O=C(NOC[C@H](O)CO)c1ccc(F)c(F)c1Nc1ccc(I)cc1F | 0.672 | 0.752 | 0.798 | 0.784 | 0.665 | 0.694 | 0.797 | 0.513 | 0.331 |
| CCCCc1nc2cc(/C=C/C(=O)NO)ccc2n1CCN(CC)CC [SB939] | 0.869 | 0.751 | 0.757 | 0.723 | 0.677 | 0.168 | 0.00615 | 0.00446 | 0.00518 |
| Nc1cccc2c1CN(C1CCC(=O)NC1=O)C2=O (centres undefined) [Lenalidomide (CC-5013)] | 0.913 | 0.795 | 0.742 | 0.739 | 0.717 | 0.692 | 0.725 | 0.715 | 0.754 |
| C[C@]12CC[C@H](O)CC1=CC[C@@H]1[C@@H]2CC[C@]2(C)C(=O)CC[C@@H]12 [Dehydroepiandrosterone] | 0.75 | 0.762 | 0.814 | 0.376 | 0.854 | 0.84 | 0.827 | 0.328 | 0.281 |
| COc1cccc(-c2cc(=O)c3ccccc3o2)c1N | 0.837 | 0.865 | 0.789 | 0.842 | 0.775 | 0.74 | 0.737 | 0.593 | 0.555 |
| CCCCC1=NC2(CCCC2)C(=O)N1Cc1ccc(-c2ccccc2-c2nnn[nH]2)cc1 [Irbesartan] | 0.799 | 0.77 | 0.823 | 0.736 | 0.691 | 0.713 | 0.688 | 0.721 | 0.733 |
| CC(C)N(CC[C@H](c1ccccc1)c1cc(CO)ccc1O)C(C)C [5-hydroxymethyl tolterodine] | 1 | 0.935 | 0.903 | 0.857 | 0.824 | 0.85 | 0.821 | 0.781 | 0.767 |

Whole records, quoted from the list. Values in the order: relative viability (0.0128 nM)	relative viability (0.064 nM)	relative viability (0.32 nM)	relative viability (1.6 nM)	relative viability (8 nM)	relative viability (40 nM)	relative viability (200 nM)	relative viability (1000 nM)	relative viability (5000 nM)
`O=C(NOC[C@H](O)CO)c1ccc(F)c(F)c1Nc1ccc(I)cc1F` as listed: 0.672	0.752	0.798	0.784	0.665	0.694	0.797	0.513	0.331
`NC1=N[C@@]2(c3cc(NC(=O)c4ccc(F)cn4)ccc3F)COC[C@H]2CS1` as listed: 0.837	0.844	0.988	0.829	0.874	0.778	1.01	0.807	0.765
